# Experimental data: PubChem BioAssay AID652243 (Drosophila RNAi Screening Center, 2013)
# Purpose: 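Knock-downs that decrease or increase androgen receptor reporter signal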 (primary screen)
# Cell system: Drosophila S2R+ cells
# Reagents: long dsRNA against Drosophila genes
# Duration: 72 h (48 h, then 24 h hormone)
# Conditions: synthetic androgen R1881 at 10 nM for 24 h
# Measured: 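Per-well raw luminescence of the androgen-driven firefly reporter and of the Renilla control, two replicates each, without normalisation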
# Scale: firefly reporter light: higher = more light from androgen-responsive reporter; Renilla control light: higher = more constitutive control signal (cell number, transfection)
# Call rule: 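Hit when the log firefly-to-Renilla ratio dropped or increased by a fixed fold versus the mean of GFP or LacZ controls across duplicate plates; lowering cut given as 1.5 and as 3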
# Calls: active = hit: reporter lowered or raised; inactive = no hit
# The screen tested about 24,000 reagents; shown is a random part of those with a known target gene and a result. In the full data, 246 (1%) got an active call. 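Plates not normalised; calls are printed but the firefly/Renilla ratio behind them is not deposited; fold cut for lowering reported inconsistently.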 Raw values are not corrected between plates. Names joined by + are all predicted targets of the reagent. Not stated in the record: the amount of reagent.
Gene,DRSC id,"firefly reporter light, replicate 1","firefly reporter light, replicate 2","Renilla control light, replicate 1","Renilla control light, replicate 2",Call
CG31176,DRSC15038,2.06e5,2.02e5,3.08e6,3.31e6,inactive
CG31176,DRSC16021,2.14e5,2.67e5,2.89e6,4.32e6,inactive
CG10804,DRSC17764,1.50e5,1.29e5,9.72e5,6.76e5,inactive
S-Lap2 (Sperm-Leucylaminopeptidase 2),DRSC10628,3.15e5,2.43e5,3.09e6,2.87e6,inactive
sage (salivary gland-expressed bHLH),DRSC14580,3.99e5,3.74e5,1.88e6,2.44e6,inactive
sage (salivary gland-expressed bHLH),DRSC28200,2.60e5,7.07e5,1.11e6,1.56e6,inactive
CG10589,DRSC11629,2.16e5,2.12e5,2.10e6,1.91e6,inactive
PlexB (Plexin B),DRSC17177,1.61e5,1.94e5,1.54e6,2.24e6,inactive
CG17597,DRSC02630,8.98e5,9.10e5,1.45e6,1.82e6,inactive
CG17597,DRSC24788,9.78e5,1.07e6,6.98e5,7.08e5,inactive
CG5902,DRSC15912,94706,78054,5.76e5,5.48e5,inactive
CG34307,DRSC38659,6.15e5,6.79e5,2.27e6,2.24e6,inactive
AGO2 (Argonaute 2),DRSC10847,78251,1.46e5,2.57e5,2.05e5,inactive
CCT6 (Chaperonin containing TCP1 subunit 6),DRSC20095,1.39e5,1.06e5,8.06e5,6.07e5,inactive
dome (domeless),DRSC19583,83499,18606,4.49e5,2.41e5,inactive
dome (domeless),DRSC36979,,,,,inactive
dome (domeless),DRSC36980,,,,,inactive
bel (belle),DRSC16555,99476,1.08e5,1.52e6,2.10e6,inactive
bel (belle),DRSC25066,7.65e5,6.98e5,7.87e5,7.43e5,inactive
CG45002,DRSC20144,4.45e5,5.28e5,3.84e6,3.37e6,inactive
ome (omega),DRSC09322,2.67e5,2.21e5,3.84e5,4.77e5,inactive
ome (omega),DRSC10282,2.17e5,1.93e5,1.78e6,1.76e6,inactive
ome (omega),DRSC11380,1.31e5,1.66e5,1.83e6,1.54e6,inactive
CG15580,DRSC12266,58260,82543,1.18e6,1.11e6,inactive
CG15580,DRSC24180,6.77e5,5.04e5,7.80e5,6.60e5,inactive
CG12655,DRSC20678,86561,91527,97430,1.12e5,inactive
CTCF,DRSC11004,1.33e6,8.39e5,9.75e5,1.08e6,inactive
CTCF,DRSC28022,9.03e5,9.38e5,1.49e6,1.58e6,inactive
CG5281,DRSC15761,2.24e5,2.10e5,3.33e6,3.30e6,inactive
CG3704,DRSC18174,2.71e5,3.25e5,6.34e6,4.40e6,inactive
CG3704,DRSC18645,3.07e5,2.80e5,6.22e6,3.56e6,inactive
CG3704,DRSC28218,5.96e5,8.78e5,1.68e6,2.44e6,inactive
CG34282,DRSC16298,2.61e5,3.68e5,3.07e6,3.10e6,inactive
CG14073,DRSC10078,2.08e5,2.31e5,2.04e6,2.87e6,inactive
CG14073,DRSC27001,3.21e5,4.63e5,7.50e5,7.59e5,inactive
CG6614,DRSC02974,7.95e5,1.26e6,1.09e6,1.72e6,inactive
CG4598,DRSC02763,2.22e5,1.75e5,1.28e6,1.30e6,inactive
ND-B14 (NADH dehydrogenase (ubiquinone) B14 subunit),DRSC07029,2.25e5,1.59e5,1.56e6,1.16e6,inactive
ND-B14 (NADH dehydrogenase (ubiquinone) B14 subunit),DRSC28660,3.73e5,3.54e5,1.29e6,1.39e6,inactive
mats (mob as tumor suppressor),DRSC13562,1.91e5,1.50e5,3.78e5,6.42e5,inactive
mats (mob as tumor suppressor),DRSC14702,69621,88333,5.70e5,7.39e5,inactive
Gr58a (Gustatory receptor 58a),DRSC03910,1.51e5,2.32e5,3.89e5,4.28e5,inactive
dpr7 (defective proboscis extension response 7),DRSC17109,7.04e5,6.10e5,1.33e6,5.66e5,inactive
dpr7 (defective proboscis extension response 7),DRSC26544,3.82e5,2.67e5,7.93e5,8.64e5,inactive

9 consecutive entries from above, for reference:
Gene,DRSC id,"firefly reporter light, replicate 1","firefly reporter light, replicate 2","Renilla control light, replicate 1","Renilla control light, replicate 2",Call
PlexB (Plexin B),DRSC17177,1.61e5,1.94e5,1.54e6,2.24e6,inactive
CG17597,DRSC02630,8.98e5,9.10e5,1.45e6,1.82e6,inactive
CG17597,DRSC24788,9.78e5,1.07e6,6.98e5,7.08e5,inactive
CG5902,DRSC15912,94706,78054,5.76e5,5.48e5,inactive
CG34307,DRSC38659,6.15e5,6.79e5,2.27e6,2.24e6,inactive
AGO2 (Argonaute 2),DRSC10847,78251,1.46e5,2.57e5,2.05e5,inactive
CCT6 (Chaperonin containing TCP1 subunit 6),DRSC20095,1.39e5,1.06e5,8.06e5,6.07e5,inactive
dome (domeless),DRSC19583,83499,18606,4.49e5,2.41e5,inactive
dome (domeless),DRSC36979,,,,,inactive

Further entries:
Gene,DRSC id,"firefly reporter light, replicate 1","firefly reporter light, replicate 2","Renilla control light, replicate 1","Renilla control light, replicate 2",Call
CG6034,DRSC10572,2.36e5,1.71e5,1.64e6,1.15e6,inactive
CG6034,DRSC27294,4.34e5,4.90e5,5.22e5,4.49e5,inactive
veil,DRSC06892,1.01e6,1.07e6,2.04e6,1.76e6,inactive
Osi22 (Osiris 22),DRSC16442,62658,65372,1.58e6,1.65e6,inactive
Osi22 (Osiris 22),DRSC27176,2.71e5,3.05e5,5.75e5,6.69e5,inactive
Cyfip (Cytoplasmic FMR1 interacting protein),DRSC15679,1.76e5,2.02e5,6.65e5,5.51e5,inactive
CG31091,DRSC15933,1.52e5,1.30e5,2.16e6,1.98e6,inactive
Cap-G (Chromosome associated protein G),DRSC06652,3.99e5,3.38e5,1.98e6,2.28e6,inactive
Cap-G (Chromosome associated protein G),DRSC06653,1.85e5,1.26e5,1.10e6,8.27e5,inactive
Cap-G (Chromosome associated protein G),DRSC21805,5.24e5,3.50e5,3.38e6,3.40e6,inactive
Lerp (lysosomal enzyme receptor protein),DRSC14750,48320,50098,1.04e6,8.61e5,inactive
Lerp (lysosomal enzyme receptor protein),DRSC14751,2.24e5,2.07e5,2.45e6,2.58e6,inactive
Lerp (lysosomal enzyme receptor protein),DRSC16030,2.28e5,2.06e5,2.46e6,2.68e6,inactive
Lerp (lysosomal enzyme receptor protein),DRSC16031,1.64e5,1.73e5,1.70e6,2.45e6,inactive
CG17764,DRSC23055,7.55e5,8.03e5,1.40e6,1.55e6,inactive
Cyp4d1 (Cytochrome P450 4d1),DRSC17694,7.73e5,6.14e5,8.90e5,7.75e5,inactive
Cyp4d1 (Cytochrome P450 4d1),DRSC18456,5.29e5,4.38e5,5.03e6,3.36e6,inactive
Cyp4d1 (Cytochrome P450 4d1),DRSC23948,4.60e5,3.87e5,4.07e5,3.89e5,inactive
Spn77Bb + Spn77Bc,DRSC10689,2.32e5,2.05e5,2.43e6,1.67e6,inactive
Spn77Bb + Spn77Bc,DRSC11793,2.62e5,2.35e5,2.74e6,2.68e6,inactive
CG17272,DRSC15211,2.37e5,1.96e5,2.41e6,3.02e6,inactive
CG13842,DRSC14692,1.45e5,2.15e5,2.35e6,2.25e6,inactive
krz (kurtz),DRSC16979,1.48e5,1.36e5,1.66e6,2.17e6,inactive
Six4,DRSC11881,2.02e5,1.42e5,1.71e6,1.40e6,inactive
Six4,DRSC29889,4.13e5,4.02e5,1.10e6,1.32e6,inactive
Orcokinin,DRSC04202,2.45e5,2.72e5,2.23e6,1.74e6,inactive
slv (saliva),DRSC07685,4.64e5,3.80e5,2.64e6,2.13e6,inactive
M7BP (Myosin-7a binding protein),DRSC05053,93707,1.05e5,2.20e5,2.72e5,inactive
M7BP (Myosin-7a binding protein),DRSC05054,73782,91863,2.82e5,1.89e5,inactive
M7BP (Myosin-7a binding protein),DRSC05932,7.03e5,3.80e5,9.52e5,1.08e6,inactive
M7BP (Myosin-7a binding protein),DRSC06701,2.49e5,2.39e5,1.79e6,1.76e6,inactive
M7BP (Myosin-7a binding protein),DRSC06816,3.03e5,2.85e5,2.48e6,2.00e6,inactive
M7BP (Myosin-7a binding protein),DRSC26905,3.11e5,2.98e5,4.52e5,3.56e5,inactive
